In patent EP1396498A1, “A pair of polypeptides with specific and strong interaction” (Max-Planck-Gesellschaft zur Förderung der Wissenschaften …, priority 2002, dated 2004) one finds binding data, which are given here for one molecule.

This test has as its target T1, α-COP from yeast extract (yeast) (UniProt P53622).
T1 sequence (looked up): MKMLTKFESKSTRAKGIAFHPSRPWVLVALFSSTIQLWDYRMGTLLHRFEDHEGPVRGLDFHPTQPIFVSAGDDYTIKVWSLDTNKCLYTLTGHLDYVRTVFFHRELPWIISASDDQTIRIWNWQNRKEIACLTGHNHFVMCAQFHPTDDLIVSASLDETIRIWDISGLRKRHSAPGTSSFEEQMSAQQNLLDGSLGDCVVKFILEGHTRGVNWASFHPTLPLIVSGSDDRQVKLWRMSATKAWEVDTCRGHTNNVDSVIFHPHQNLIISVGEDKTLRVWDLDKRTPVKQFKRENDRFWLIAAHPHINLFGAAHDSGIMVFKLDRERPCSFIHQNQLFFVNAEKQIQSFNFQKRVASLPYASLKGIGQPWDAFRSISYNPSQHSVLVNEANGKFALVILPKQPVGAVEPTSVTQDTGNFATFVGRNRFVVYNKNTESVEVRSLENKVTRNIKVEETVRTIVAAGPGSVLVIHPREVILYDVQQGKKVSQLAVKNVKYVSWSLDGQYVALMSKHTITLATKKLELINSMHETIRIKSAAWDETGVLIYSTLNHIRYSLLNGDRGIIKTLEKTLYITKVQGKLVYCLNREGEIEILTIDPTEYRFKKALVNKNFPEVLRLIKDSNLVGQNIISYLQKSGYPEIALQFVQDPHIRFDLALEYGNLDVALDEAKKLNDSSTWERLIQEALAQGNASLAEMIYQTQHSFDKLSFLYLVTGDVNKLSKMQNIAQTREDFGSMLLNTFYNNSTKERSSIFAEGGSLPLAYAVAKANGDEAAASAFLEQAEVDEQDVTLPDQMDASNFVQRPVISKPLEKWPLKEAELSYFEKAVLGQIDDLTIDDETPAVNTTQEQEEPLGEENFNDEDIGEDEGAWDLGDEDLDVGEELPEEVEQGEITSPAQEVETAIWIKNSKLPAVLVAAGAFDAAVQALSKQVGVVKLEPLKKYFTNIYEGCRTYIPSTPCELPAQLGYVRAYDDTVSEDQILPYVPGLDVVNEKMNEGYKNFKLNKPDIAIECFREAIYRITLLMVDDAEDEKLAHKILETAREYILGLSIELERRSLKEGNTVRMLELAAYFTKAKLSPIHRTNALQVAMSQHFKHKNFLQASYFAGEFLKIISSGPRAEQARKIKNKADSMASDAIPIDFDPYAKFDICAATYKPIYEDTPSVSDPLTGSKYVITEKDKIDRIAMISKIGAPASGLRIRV
The test can be described thus: GST pull-down from yeast extract; the filing takes the retention to be mediated by δ-COP.

Results are given in words; binding and its absence hold for the method and conditions named. In cells and extracts the contact can be indirect. Some entries that bind do so weakly or less than the wild type. Tags and fused reporters may be left off the sequences shown.

B1: GST-Dsl1p (protein, S. cerevisiae (yeast), UniProt P53847 1-754, looked up, not shown: a dimerising Fc or GST)
chain: MESLFPNKGEIIRELLKDPLILKNDSKRSNGSELELDSSDLLQREAILANELNILDNLKTFLNLIKEVKTNLNILELENCYYSLQSLRKKMRNNAAYLKQSFNFQQSISTYVDTLHLELVSTLYKILTNGFWKITENSIQFTPTVEWGKDKVHIEYDTFMDFVAQQYFPKGSLDNQAWFILDMTSADSQEQVRAKLNTIMKEYMNLSRIVSMIKNSIFISGKEISYENEKNILVFSKSSSHGQHCVSTVLTSFEAVCDFMLDGLAFRDRKTLSYELGPLFNTEFTKFVKNNASIILESLDSPLKNLVSVINNKLTRLVAKSEVTNWTHSGKEIQDLLMNKQLYYNLLLDKVLESHISEIRSIFEDPKKSWQNLEVVELTTSNTNTMSEKIGKNDSDVQNEKELHNAVSKDDDWNWEVEDDDADAWGDEIDVNIDDEEEKTNQEKEKEPEEEENAWDEAWAIDENIDDASLENGKEHLKAHDVGSLDKDHIEVTQLPKLFLAISQNFKSSFADSHVDEQYFAYKYNLLQTSYMAMCTANFSHNWCQLYVDMRYLIERDEKLYRIKELTRNLLETKLNMKYRIVCQLIRHQLTEFRENERNPSWDATIEKLLPYILKEIVRPLQKIRGEEGSRYLLSFLNFLYNDCVTKEILKWQIISEVNSENLGELVSLLVNNTDIQLLAKEPSYKKMREKFATMGKFLPLHLKEIMEMFYNGDFYLFATDELIQWIELLFADTPLRRNAIDDIYEIRGTALDD
Regarding B1, the binding entry is “binds”.
